Source: PubChem BioAssay AID445 (National Center for Advancing Translational Sciences (NCATS), 2006)
Some of the results follow. These are further read-outs of the screen, such as a control signal, another cell line or another target. No call is given for them. Compounds called inactive in the main read-out are mostly missing here. Potencies come from curve fits of mixed quality, noted in brackets.

Assay: IkB Signaling
Conditions: ABC-DLBCL IkBa-CBG/CBR dual luciferase ratio (green luciferase fused to IkBa over red control in OCI-Ly3 lymphoma cells), 4 h; measured here: control luc red channel unless noted
Method in brief: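 In this assay, an IκBα–CBG68 fusion accumulates when IKK-driven degradation is blocked; native CBR normalizes for cell number. OCI-Ly3 cells were treated 4 h with compound and doxycycline, then green and red light read after Chroma-Glo addition.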

| Structure (SMILES) | AC50 |
| --- | --- |
| CCn1nc(C)c2c(-c3ccccc3)cc(=O)n(C(C)C(=O)Nc3ccc(OC)c(OC)c3)c21 (configuration not stated) | 10 µM [rising, partial curve] |
| CCOC(=O)c1ccccc1NC(=O)CN(c1ccccc1)S(=O)(=O)c1ccc(OCC)cc1 | 10 µM [falling, partial curve] |
| Cn1c(N2CCN(C(=O)NCc3ccccc3)CC2)nc2ccccc21 | 25.1 µM [falling, partial curve] |
| Cc1ccc(CNC(=O)c2cn(C3CCCCC3)c(=O)c3c2c2ccccc2n3C)o1 | 12.6 µM [falling, partial curve] |
| Cc1cc(C)cc(NC(=O)Cn2nnc(-c3ccccc3F)n2)c1 | 0.00631 µM [rising, full curve, poor fit] |
| O=C(CCc1cn(Cc2ccc(F)cc2)c2ccccc12)NC1CCCCC1 | 6.31 µM [falling, full curve] |
| CCOC(=O)N1CCc2c(sc3c2c(=O)n(-c2ccc(CC)cc2)c(=O)n3Cc2cccc(Cl)c2)C1 | 12.6 µM [falling, partial curve] |
| Cc1ccc(C)c(N2CCN(C(=O)C3CCC(CNS(=O)(=O)c4cccs4)CC3)CC2)c1 (configuration not stated) | 12.6 µM [falling, partial curve] |
| OC(COc1c(Br)cc(Br)cc1Br)CN1CCOCC1 (configuration not stated) | 3.98 µM [falling, partial curve] |
| CCn1cc(C(=O)OCC(=O)Nc2cc(Cl)ccc2C)c(=O)c2ccc(C)nc21 | 0.00631 µM [falling, full curve] |
| Cc1ccc(NC(=O)CN2C(=O)C(c3ccc(F)cc3)=NC23CCCCCC3)c(C)c1 | 25.1 µM [falling, single point] |
| O=C(NCCSc1c[nH]c2ccccc12)c1ccc(Cl)cc1 | 20 µM [falling, partial curve] |
| Cc1ccc(N2CC(NC(=O)CCCc3ccccc3)CC2=O)cc1 (configuration not stated) | 3.16 µM [falling, partial curve] |
| COc1cccc(C(c2nnnn2CCc2ccccc2)N2CCN(c3ccccc3)CC2)c1OC (configuration not stated) | 12.6 µM [falling, partial curve] |
| O=C(Cn1nc(Cc2cccnc2)c2ccccc2c1=O)N1CCN(c2ccccc2F)CC1 | 25.1 µM [falling, partial curve] |
| COc1ccc(CNC(=O)c2ccc(CN3C(=O)C(C)=C(c4ccc(C)cc4)S3(=O)=O)cc2)cc1 | 6.31 µM [falling, partial curve] |
| CCOC(=O)c1c(Nc2ccc(C)c(C)c2)nnc(-c2ccccc2)c1-c1ccccc1 | 12.6 µM [falling, partial curve] |
| O=C(NCCc1ccccc1)c1c[nH]c2ccc(S(=O)(=O)Nc3ccc(F)cc3F)cc2c1=O | 1.58 µM [rising, partial curve] |
| CCOc1ccc(NC(=O)NCCN2CCN(c3cc(Cl)ccc3C)CC2)cc1 | 31.6 µM [falling, partial curve] |
| COc1ccc(C(=O)CC2(O)C(=O)N(Cc3ccccc3)c3ccc(Br)cc32)cc1 (configuration not stated) | 20 µM [falling, partial curve] |
| O=C(NCc1ccco1)C1CCN(c2nc3ccccc3n2Cc2ccc(F)cc2)CC1 | 15.8 µM [falling, partial curve] |

| Structure (SMILES) | AC50 |
| --- | --- |
| CCOC(=O)c1c(NC(=O)CSc2nnc(-c3cccnc3)o2)sc(C(C)=O)c1C | 20 µM [falling, single point] |
| CCCCOc1cccc(C(=O)N(Cc2cccs2)c2ccc(OC)cc2)c1 | 31.6 µM [falling, single point] |
| CC(C)(C)c1ccc(-c2nc(SCC(=O)Nc3ccc(Cl)cc3)[nH]c(=O)c2C#N)cc1 | 20 µM [falling, partial curve] |
| CC(=O)NCCn1c(SCC(=O)Nc2ccc(C)cc2)nc2ccccc2c1=O | 3.16 µM [rising, partial curve, poor fit] |
| Cc1c(-c2ccc(Cl)cc2)c(=O)oc2ccc(OC(=O)N3CCOCC3)cc12 | 3.98 µM [rising, partial curve] |
| COc1ccccc1CNC(=O)CC(c1ccc(OC)c(OC)c1)N1Cc2ccccc2C1=O (configuration not stated) | 0.0158 µM [rising, full curve, poor fit] |
| CC1CCN(c2nc(-c3ccco3)c3c(c2C#N)CC(C)(C)OC3)CC1 | 10 µM [falling, partial curve] |
| Cc1ccc(Cl)cc1-n1ncc2c(N3CCCCCC3)ncnc21 | 12.6 µM [falling, partial curve] |
| Cc1ccccc1CN1C(=O)c2ccccc2Sc2ccc(C(=O)NC3CCCC3)cc21 | 25.1 µM [falling, single point] |
| CCCN(C(=O)CCc1nc(-c2ccc(OC)cc2)no1)c1ccccc1F | 20 µM [falling, partial curve] |
| COc1cccc2cc(-c3nnc(Nc4c(F)cccc4F)s3)c(=O)oc12 | 0.0501 µM [falling, full curve] |
| COc1cc(-c2nc(Cn3nnc(C(=O)Nc4ccc(C)cc4C)c3C)c(C)o2)cc(OC)c1OC | 3.98 µM [falling, full curve] |
| Cc1oc(-c2ccccc2F)nc1CS(=O)(=O)CC(=O)NCCc1ccc(Cl)cc1 | 25.1 µM [falling, single point] |
| COc1ccc(-n2nnnc2SCC(=O)c2cc3ccccc3o2)cc1 | 25.1 µM [falling, partial curve] |
| COc1ccc(NC(=O)Cn2ncc3c2-c2ccccc2OC3)cc1Cl | 20 µM [falling, single point] |
| O=C(CSc1nc2c([nH]c3ccccc32)c(=O)n1-c1ccccc1)Nc1ccc2c(c1)OCCO2 | 0.126 µM [falling, full curve] |
| CCOC(=O)N1CCN(C(=O)CSCC(=O)Nc2nc(-c3ccccc3)cs2)CC1 | 12.6 µM [falling, partial curve] |
| Cc1ccc(C)c2sc(N3CCN(C(=O)C(C)(C)C)CC3)nc12 | 3.16 µM [rising, partial curve] |
| CCN(CCCNC(=O)c1cc2c(Cl)nc3ccccc3c2s1)Cc1ccccc1 | 39.8 µM [falling, single point] |
| COc1ccc(CCNC(=O)Cn2ncc3c(=O)oc4ccccc4c32)c(OC)c1 | 39.8 µM [falling, partial curve] |
| CCOc1ccc(NC(=O)c2oc3ccccc3c2NC(=O)c2cc(C)cc(C)c2)cc1 | 20 µM [falling, single point] |

| Structure (SMILES) | AC50 |
| --- | --- |
| CCOc1ccc(NC(=O)c2cnc(Nc3ccccc3OC)c3ccccc23)cc1 | 3.16 µM [falling, full curve] |
| N#Cc1nc(-c2ccccc2F)oc1NCc1cccc2c1OCO2 | 25.1 µM [falling, partial curve] |
| Cc1cccc(Cc2c(C)nc3nc(SCC(=O)NCc4ccccc4)nn3c2C)c1 | 25.1 µM [falling, partial curve] |
| CC(C)Oc1ccc(CNC(=O)c2cccc(NC(=O)N3CCSc4ncccc43)c2)cc1 | 15.8 µM [falling, partial curve] |
| CCC(=O)N1CCc2cc(Br)cc(S(=O)(=O)N3CCCC(C(=O)Nc4cccc(F)c4)C3)c21 (configuration not stated) | 15.8 µM [falling, partial curve] |
| CCOC(=O)CSc1nc2sc3c(c2c(=O)n1-c1ccccc1)CCC(C(C)(C)C)C3 (configuration not stated) | 3.98 µM [falling, partial curve] |
| CCOC(=O)c1cc(-c2ccccc2)n(-c2cccc(C(=O)Nc3cc(OC)cc(OC)c3)c2)c1C | 10 µM [falling, partial curve] |
| Cc1cc(C)cc(Oc2c(C(F)(F)F)oc3cc(OCC(=O)NC4CCCCC4)ccc3c2=O)c1 | 0.0251 µM [rising, full curve, poor fit] |
| Cn1c(=O)oc2cc(S(=O)(=O)N3CCC(C(=O)Nc4ccc(F)c(Cl)c4)CC3)ccc21 | 31.6 µM [falling, partial curve] |
| O=C(Nc1cccnc1)c1cc(-c2cccc(Cl)c2)on1 | 3.16 µM [falling, full curve] |
| O=C(NCc1ccc(F)cc1)c1cc(-c2ccc(Cl)cc2)n[nH]1 | 3.98 µM [falling, partial curve] |
| CCC(C)NC(=O)CCSc1nc(-c2ccc(OC)cc2)cc(C(F)(F)F)n1 (configuration not stated) | 0.158 µM [rising, full curve, poor fit] |
| CCc1ccc(S(=O)(=O)c2nnn3c2nc(Nc2ccc(F)cc2)c2cc(Cl)ccc23)cc1 | 12.6 µM [falling, partial curve] |
| O=C(O)c1cccc(Nc2ncnc3scc(-c4ccccc4)c23)c1 | 25.1 µM [falling, single point] |
| CCN(CC)S(=O)(=O)c1ccc(C(=O)N2CC(=O)Nc3ccc(F)cc3C2c2ccccc2)cc1 (configuration not stated) | 12.6 µM [falling, partial curve] |
| CC(=O)N1c2ccc(S(=O)(=O)NCC3CCC(C(=O)Nc4cc(C)ccc4C)CC3)cc2CC1C (configuration not stated) | 5.01 µM [falling, partial curve] |
| COc1cc(NC(=O)c2c(C)oc3c2C2=NCCN2C=N3)cc(OC)c1OC | 31.6 µM [falling, partial curve] |
| COc1ccc(OCC(=O)NCc2ccc3c(c2)CCN3C(=O)c2ccc(F)cc2)cc1 | 3.98 µM [rising, partial curve] |
| CCCc1cc(C(=O)Nc2c(C)nn(Cc3c(Cl)cccc3Cl)c2C)no1 | 12.6 µM [falling, partial curve] |
| Cc1cc(C)c(S(=O)(=O)Nc2ccc(-c3ccc(N4CCCCCC4)nn3)cc2)c(C)c1 | 7.94 µM [falling, partial curve] |

A draw from above in order of length of the SMILES, largest number first:

| Structure (SMILES) | AC50 |
| --- | --- |
| CC(=O)N1c2ccc(S(=O)(=O)NCC3CCC(C(=O)Nc4cc(C)ccc4C)CC3)cc2CC1C (configuration not stated) | 5.01 µM [falling, partial curve] |
| Cn1c(=O)oc2cc(S(=O)(=O)N3CCC(C(=O)Nc4ccc(F)c(Cl)c4)CC3)ccc21 | 31.6 µM [falling, partial curve] |
| COc1ccc(C(=O)CC2(O)C(=O)N(Cc3ccccc3)c3ccc(Br)cc32)cc1 (configuration not stated) | 20 µM [falling, partial curve] |
| CCOC(=O)c1c(NC(=O)CSc2nnc(-c3cccnc3)o2)sc(C(C)=O)c1C | 20 µM [falling, single point] |
| COc1cc(NC(=O)c2c(C)oc3c2C2=NCCN2C=N3)cc(OC)c1OC | 31.6 µM [falling, partial curve] |
| O=C(Nc1cccnc1)c1cc(-c2cccc(Cl)c2)on1 | 3.16 µM [falling, full curve] |
